Patent US20170065564A1, “BIS-CYCLIC GUANIDINE COMPOUND COMPOSITIONS, METHODS OF USE AND TREATMENT THEREOF” (University of South Florida, priority 2014, published 2017)

system: human A549 cells; assay: Cytotoxicity assay (MTT); format: cell-based; conditions: A549 IC50 divided by MIC
Experimental: Cytotoxicity assays were performed using human A549 cells (adenocarcinomic human alveolar epithelial cells), as described by us previously.^44 Briefly, cells were cultured in F-12K Nutrient mixture (Kaighn's Modification) media containing L-glutamine, supplemented with 10% fetal bovine serum and 1% penicillin-streptomycin for 3 days at 37° and 5% CO2. Cells were then diluted to 1.0×10^5 ml^−1 using F-12K supplemented media, and added to 96 well tissue culture plates at a volume of 100 μl. Plates were incubated for 24 hours at 37° C. and 5% CO2, allowing the cells to adhere to the plastic. […] Plates were then incubated for 48 hours at 37° C. and 5% CO2. After 48 hours the media was removed, and new media added containing MTT (3-(4, 5-dimethylthiazol-2-yl)-2, 5-diphenyltetrazolium bromide), followed by incubation for four hours at 37° C. and 5% CO2. After 4 h, 50 μl of media was removed, replaced with DMSO and incubated for ten minutes at 37° C. in order to solubilize any formazan produced. A Biotek plate reader was used to measure the absorbance of formazan production at […], and IC50 values were determined for each of the five compounds. Front runners were solvated in 45% w/v (2-hydroxypropyl)-β-cyclodextrin in water for these studies; which was also used alone as a negative control. IC50 values were determined for each compound by comparison to vehicle only controls, to assess toxicity to human cells.

SMILES | AI (Activity Index, IC50/MIC)
CCCCCCCN1C(=N)N(CCCC[C@H]2CNC(=N)N2CCc2cccc(C(F)(F)F)c2)C[C@@H]1CCCC [Compound 1] | 100
CCCC[C@H]1CN(CCCC[C@H]2CNC(=N)N2CCc2cccc(C(F)(F)F)c2)C(=N)N1CCCCC1CCCCC1 [Compound 2, (S)-4-butyl-3-(4-cyclohexylbutyl)-1-(4-((S)-2-imino-3-(3-(trifluoromethyl)phenethyl)imidazolidin-4-yl)butyl)imidazolidin-2-imine] | 81.8
CCCCCCCN1C(=N)N(CCCC[C@H]2CNC(=N)N2CCc2cccc(C(F)(F)F)c2)C[C@@H]1CC1CCCCC1 [Compound 7] | 43.1
CCCCCCCN1C(=N)N(CCCC[C@H]2CNC(=N)N2CCCCC2CCCCC2)C[C@@H]1CC1CCCCC1 [Compound 16] | > 139
CCCCCCCN1C(=N)N(CCCC[C@H]2CNC(=N)N2CCC23CC4CC(CC(C4)C2)C3)C[C@@H]1CCCC [Compound 19] | 87.6
